doi:10.1101/431023
No constants are given. Whether binding was seen depends on the method and setting. Binding seen in cells or lysates may run through a third protein. Some entries that bind do so weakly or less than the wild type. Where a sequence is shown, tags or fusion partners need not be part of it.

T1: 3xFLAG-TCF7L1 (knock-in at one allele of endogenous TCF7L1) (mouse (endogenous in mESCs)) (UniProt Q9Z1J1)
T1 sequence: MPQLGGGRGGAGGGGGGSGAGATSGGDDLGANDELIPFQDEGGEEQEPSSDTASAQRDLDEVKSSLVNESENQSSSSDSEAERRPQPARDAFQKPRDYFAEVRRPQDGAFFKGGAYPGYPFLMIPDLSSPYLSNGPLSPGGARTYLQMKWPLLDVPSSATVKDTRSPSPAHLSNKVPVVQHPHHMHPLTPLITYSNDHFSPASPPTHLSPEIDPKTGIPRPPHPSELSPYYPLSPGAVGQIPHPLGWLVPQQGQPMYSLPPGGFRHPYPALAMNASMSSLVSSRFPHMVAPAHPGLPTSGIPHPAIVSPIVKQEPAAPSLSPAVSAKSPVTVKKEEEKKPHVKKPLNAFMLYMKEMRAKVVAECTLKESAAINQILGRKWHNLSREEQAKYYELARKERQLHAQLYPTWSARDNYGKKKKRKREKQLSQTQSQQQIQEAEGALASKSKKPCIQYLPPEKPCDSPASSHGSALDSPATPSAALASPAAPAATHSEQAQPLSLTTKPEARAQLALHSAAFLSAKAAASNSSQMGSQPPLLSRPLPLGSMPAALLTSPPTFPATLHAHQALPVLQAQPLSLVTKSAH


Assays:
[1] = target: T1, 3xFLAG-TCF7L1 (knock-in at one allele of endogenous TCF7L1) (mouse (endogenous in mESCs)); test: co-IP
[2] = target: T1, 3xFLAG-TCF7L1 (knock-in at one allele of endogenous TCF7L1) (mouse (endogenous in mESCs)); test: proximity ligation

binding [1] | binding [2] | Molecule
binds | – | SALL4 isoform SALL4A (from UniProt Q8BX22-1 1-1067)
– | binds | SALL4 (from UniProt Q8BX22 1-1067)
no binding | – | SALL4 isoform SALL4B (protein, UniProt Q8BX22-2 1-623) MSRRKQAKPQHINWEEGQGEQPQQLPSPDLAEALAAEEPGAPVNSPGNCDEASEDSIPVKRPRREDTHICNKCCAEFFSLSEFMEHKKSCTKTPPVLIMNDSEGPVPSEDFSRAALSHQLGSPSNKDSLQENGSSSGDLKKLGTDSILYLKTEATQPSTPQDISYLPKGKVANTNVTLQALRGTKVAVNQRGAEAPMAPMPAAQGIPWVLEQILCLQQQQLQQIQLTEQIRVQVNMWAAHALHSGVAGADTLKALSSHVSQQVSVSQQVSAAVALLSQKASNPALSLDALKQAKLPHASVPSAASPLSSGLTSFTLKPDGTRVLPNFVSRLPSALLPQTPGSVLLQSPFSAVTLDQSKKGKGKPQNLSASASVLDVKAKDEVVLGRTSLPPTFIRAQPTFVKVEVPGTFVGPPSMPSGMPPLLASQPQPRRQAKQHCCTRCGKNFSSASALQIHERTHTGEKPFVCNICGRAFTTKGNLKVHYMTHGANNNSARRGRKLAIENPMAALSAEGKRAPEVFSKELLSPAVSVDPASWNQYTSVLNGGLAMKTNEISVIQSGGIPTLPVSLGASSVVSNGTISKLDGSQTGVSMPMSGNGEKLAVPDGMAKHQFPHFLEENKIAVS
